Experimental data from patent publication US20220409560A1, “Pharmaceutical Compositions, Formulations And Methods For The Treatment Of Retinoblastoma” (Oxular Limited, priority 2019, published 2022).

Legend:
[1] = test system: WERI cell line (WERI-Rb1); assay: Retinoblastoma cell proliferation inhibition assay (Cell Titer Glo, 72 hour incubation); assay type: cell-based; details: Homo sapiens
Y79 cell line = assay: as above; assay type: cell-based; details: Homo sapiens

## O=C(CCCCCCC(=O)Nc1ccccc1)NO [Vorinostat]
[1]
  EC50: 1370 nM
Y79 cell line
  EC50: 2840 nM
